# Measured values from PubChem BioAssay AID1487 (National Center for Advancing Translational Sciences (NCATS), 2009).
# The other results are listed elsewhere or left out. The main result of the screen is listed elsewhere. These columns were measured beside it and carry no call. The list favours compounds with an active or inconclusive main result. Words in brackets tell the shape of the fitted curve; partial curves, single points and poor fits give uncertain potencies.
# Assay: qHTS Assay for Modulators of Lamin A Splicing
# Settings: HeLa LMNA splicing GFP/RFP minigene ratio, 48 h
# Method in brief: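 Read-out is the ratio of GFP to DsRed2 object intensity, acquired by 488 nm laser-scanning cytometry on HeLa lamin A-EGFP minigene reporter cells. Compound incubation 48 hrs at 37 °C in Opti-MEM with 2% FBS; DMSO 0.5% final.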
# [1] = measured here: GFP splicing reporter channel
# [2] = measured here: RFP viability control channel
SMILES,AC50 [1],AC50 [2]
C/C(=N\N=C(/N)SC1CC(=O)N(c2ccc(Cl)c(Cl)c2)C1=O)c1cccs1 (configuration not stated),"17.8 µM [falling, partial curve]","22.4 µM [falling, partial curve]"
Cc1ccc(Cl)c(OC(=O)Cn2cnc3c2c(=O)n(C)c(=O)n3C)c1,"2.51 µM [rising, full curve]","3.98 µM [rising, full curve, poor fit]"
Cc1cc(/C=N/NC(=O)C(=O)NCc2ccccn2)c(C)n1-c1cccc(Br)c1,"0.0562 µM [rising, full curve, poor fit]","35.5 µM [rising, partial curve, poor fit]"
O=C(CCCCCCN1C(=O)c2ccccc2C1=O)N1CCC(c2ccccc2)C1 (configuration not stated),,"35.5 µM [rising, single point]"
COc1cc(-c2nc3cnccn3c2Nc2ccccc2)ccc1O,,"25.1 µM [rising, partial curve]"
CCOC(=O)N1CCC(NC(=O)c2cnn(-c3ccccc3)c2C2CCN(C(=O)OC(C)(C)C)CC2)CC1,"0.0126 µM [falling, full curve]","0.00316 µM [falling, full curve, poor fit]"
COc1ccc(-n2c(COc3cccc4ccccc34)nnc2SCC#N)cc1,,"35.5 µM [rising, single point]"
CCn1c(=N)c(C(=O)NCCCOC)cc2c(=O)n3cccc(C)c3nc21,,"10 µM [rising, partial curve]"
CS(=O)(=O)c1nc(-c2ccccc2)cc(-c2ccccc2)c1C#N,"12.6 µM [falling, partial curve]","35.5 µM [falling, single point]"
Cc1ccc(C(=O)N2c3nc(-c4ccco4)nn3C3(CCCCC3)[C@@H]3CCCC[C@@H]32)cc1,"15.8 µM [rising, partial curve, poor fit]",
Cc1cccc(NC(=O)NNC(=O)c2c(Cl)c(C)nn2C)c1,"11.2 µM [rising, partial curve]","17.8 µM [rising, single point]"
COC/C=C/C1=CC2=CC(=O)C(C)(OC(=O)c3cnc4ccccc4n3)C(=O)C2=CN1Cc1ccccc1 (configuration not stated),"0.000794 µM [rising, full curve, poor fit]",
COc1ccc(S(=O)(=O)N2CCc3ccccc32)cc1NC(C)=O,,"3.98 µM [rising, full curve]"
COc1cccc(N2CCN(C(=O)CN3CCSc4ccc(S(=O)(=O)N(C)C)cc43)CC2)c1,,"14.1 µM [rising, single point]"
COC(=O)c1ccc(OCC2c3cc(OC)c(OC)cc3CCN2C(=O)c2cccc(C)c2)cc1 (configuration not stated),"22.4 µM [falling, partial curve, poor fit]",
CCOC(=O)/C(C#N)=C(C)/C=C1\Sc2ccccc2N1CC,"28.2 µM [falling, single point]","35.5 µM [falling, single point]"
CSc1ccc(-c2nnn(Cc3ccc(Br)cc3)n2)cc1,,"31.6 µM [rising, single point]"
O=C(C1CCN(c2nnc(-n3cccc3)s2)CC1)N1CCN(Cc2ccc3c(c2)OCO3)CC1,,"8.91 µM [rising, partial curve]"
COc1cccc(CNC(=O)Cn2c(=O)n3nc(-c4cccc(C)c4)nc3c3ccccc32)c1,,"14.1 µM [falling, partial curve]"
C=CCNc1ncnc2c1[nH]c1ccc(Cl)cc12,,"14.1 µM [rising, partial curve]"
CSc1ccc(S(=O)(=O)Nc2ccc3c(c2)OCCO3)cc1,"11.2 µM [rising, partial curve, poor fit]","15.8 µM [rising, partial curve]"
Cc1ccc(OCC(=O)Nc2cccc(S(=O)(=O)N3CCCCC3)c2)c([N+](=O)[O-])n1,,"8.91 µM [rising, partial curve]"
COc1cccc(-c2csc(N3CCN(Cc4ccccc4)CC3)n2)c1,,"35.5 µM [rising, single point]"
COc1cccc([C@@H]2Oc3ccc(OC)cc3C(=O)[C@H]2OC(=O)Nc2cc(OC)c(OC)c(OC)c2)c1,,"25.1 µM [rising, single point]"
OC(CN1C2=NCCN2c2ccccc21)c1ccc(Br)cc1 (configuration not stated),"22.4 µM [rising, single point]","15.8 µM [rising, single point]"
O=C(OCC(=O)N1CCOCC1)c1ccc(N2CCOCC2)c([N+](=O)[O-])c1,,"0.0398 µM [falling, full curve, poor fit]"
CCn1c(CNc2cccc(C(F)(F)F)c2)n[nH]c1=S,"35.5 µM [falling, single point]",

# Reprinted from the listing for reference:
SMILES,AC50 [1],AC50 [2]
COc1cccc(CNC(=O)Cn2c(=O)n3nc(-c4cccc(C)c4)nc3c3ccccc32)c1,,"14.1 µM [falling, partial curve]"
C=CCNc1ncnc2c1[nH]c1ccc(Cl)cc12,,"14.1 µM [rising, partial curve]"

# More results follow:

SMILES,AC50 [1],AC50 [2]
CCNC(=S)NNC(=O)c1cc(-c2cccnc2)nc2ccccc12,"8.91 µM [falling, partial curve, poor fit]",
O=S1(=O)CC2N=C(N(Cc3ccc(F)cc3Cl)c3ccccc3F)SC2C1 (configuration not stated),,"3.16 µM [rising, partial curve]"
COc1ccc2cc(C(C)c3nc4ccccc4c(=O)n3N)ccc2c1 (configuration not stated),"11.2 µM [rising, single point]","28.2 µM [rising, single point]"
O=C(Cc1c[nH]c2ccccc12)OCCOC(=O)Cc1c[nH]c2ccccc12,"0.00562 µM [falling, full curve, poor fit]","0.708 µM [falling, partial curve, poor fit]"
Cc1ccnc(NC(=O)c2sc3ccccc3c2Cl)c1,"0.0891 µM [rising, partial curve, poor fit]",
CCCCC1=CC2=C(c3ccco3)C(=O)C(C)(OC(=O)c3ccc(OC)cc3)C(=O)C2=CN1CCCCO (configuration not stated),,"0.0562 µM [falling, partial curve, poor fit]"
CCOc1ccc(CN(C)CC(=O)Nc2cc(C)c(C)cc2[N+](=O)[O-])cc1,"8.91 µM [falling, partial curve]",
O=C(CN1CCN(c2ccccc2F)CC1)Nc1nnc(C(F)(F)F)s1,,"0.0224 µM [rising, full curve, poor fit]"
O=[N+]([O-])c1cc(Br)c(O)c(/C=N/Nc2nc3ccccc3s2)c1,"0.0224 µM [falling, full curve, poor fit]",
CCCn1c(=S)[nH]c2cc(C(=O)N3CCc4ccccc43)ccc2c1=O,"1.12 µM [rising, partial curve]","4.47 µM [rising, full curve]"
COC(=O)c1c(CCl)noc1C(=O)NCC1CCCO1 (configuration not stated),,"3.55 µM [falling, partial curve, poor fit]"
Cc1ccc(C)c(CN2CCC(CNC(=O)c3cc4ccc5cccnc5c4[nH]3)CC2)c1,"8.91 µM [falling, partial curve]",
O=C(Nc1nccs1)c1ccc(Cl)c(S(=O)(=O)N2CCCCC2)c1,"0.794 µM [rising, full curve, poor fit]","14.1 µM [rising, partial curve]"
COc1ccc(NCc2n[nH]nc2-c2ccccc2)cc1Cl,"35.5 µM [rising, single point]",
COc1ccc(-c2noc(-c3ccccc3-c3ccccc3)n2)cc1,"31.6 µM [falling, partial curve]","31.6 µM [falling, partial curve, poor fit]"
COc1nc(-c2ccc(C)cc2)ccc1-c1noc(-c2ccco2)n1,"11.2 µM [rising, partial curve, poor fit]","8.91 µM [rising, partial curve]"
C[C@@H]1C=C[C@](Cc2ccccc2)(C(=O)NCCc2c[nH]c3ccccc23)N1C(=O)c1ccccc1,,"31.6 µM [rising, single point]"
COc1ccc(NS(=O)(=O)c2cc(NC(=O)Cc3cccs3)ccc2C)cc1,,"35.5 µM [rising, single point]"
COc1cccc2sc(N(CCN(C)C)C(=O)/C=C/c3cccs3)nc12,"1.78 µM [rising, partial curve, poor fit]",
c1ccc(-c2ccccc2OCCCCN2CCCCCC2)cc1,,"15.8 µM [rising, partial curve, poor fit]"
O=c1c(O)c(-c2ccccc2)oc2cc(O)ccc12,"22.4 µM [falling, partial curve, poor fit]",
Cc1nc(SCc2cccc(C(=O)O)c2)nc2c1CCCC2,,"0.708 µM [falling, full curve, poor fit]"
Cn1c(CSCc2ccccc2Cl)nnc1SCC(=O)Nc1nccs1,,"11.2 µM [rising, partial curve]"
CCOc1ccc(S(=O)(=O)NN2Cc3ccccc3C2=N)cc1,"0.178 µM [falling, full curve, poor fit]","1.12 µM [falling, full curve, poor fit]"
Cc1cc(-n2[nH]c(C)c(C)c2=O)nc(-c2ccccc2O)n1,,"31.6 µM [rising, single point]"
C=CCn1c(Oc2ccc(C(=O)OC)cc2)nc2c1c(=O)n(C)c(=O)n2C,"35.5 µM [rising, single point]","35.5 µM [rising, single point]"
NC[C@@H]1O[C@H](O[C@@H]2[C@H](O[C@@H]3O[C@H](CO)[C@@H](O)[C@@H]3O)[C@@H](O)[C@@H](N)C[C@H]2N)[C@@H](N)[C@H](O)[C@@H]1O,"0.0891 µM [falling, full curve, poor fit]","2.82 µM [falling, partial curve, poor fit]"

# Single entries from the results shown:
# Under AC50 [2], O=S1(=O)CC2N=C(N(Cc3ccc(F)cc3Cl)c3ccccc3F)SC2C1 (configuration not stated) shows 3.16 µM [rising, partial curve]
# Under AC50 [2], COc1nc(-c2ccc(C)cc2)ccc1-c1noc(-c2ccco2)n1 shows 8.91 µM [rising, partial curve]
